Reference: PMC8984140
Results are given in words; binding and its absence hold for the method and conditions named. In cells and extracts the contact can be indirect. Some results given as binding are weak or reduced against the parent protein; the word gives no strength. Sequences can lack the tags named with a protein.

By UniProt entry, the sequences of proteins in these tests, tags left out.
UniProt O88275: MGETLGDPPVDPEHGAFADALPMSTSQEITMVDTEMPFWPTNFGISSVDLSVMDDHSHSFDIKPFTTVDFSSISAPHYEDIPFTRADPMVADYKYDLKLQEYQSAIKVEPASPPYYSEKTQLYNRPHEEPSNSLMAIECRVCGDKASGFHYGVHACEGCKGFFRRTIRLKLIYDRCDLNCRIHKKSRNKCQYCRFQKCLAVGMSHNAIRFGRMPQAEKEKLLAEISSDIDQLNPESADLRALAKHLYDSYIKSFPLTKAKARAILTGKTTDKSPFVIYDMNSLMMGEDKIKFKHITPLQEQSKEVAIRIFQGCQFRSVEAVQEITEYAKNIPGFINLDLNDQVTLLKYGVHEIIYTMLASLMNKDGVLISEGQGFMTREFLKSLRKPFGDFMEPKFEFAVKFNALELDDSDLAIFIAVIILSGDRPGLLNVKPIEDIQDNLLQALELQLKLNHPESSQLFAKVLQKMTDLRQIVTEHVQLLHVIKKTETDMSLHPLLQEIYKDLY

How the values were obtained:
[1] = biological target: peroxisome proliferator-activated receptor γ (PPARγ) (rat (endogenous in primary astrocytes)) (UniProt O88275); experiment: co-IP; lysate of primary rat astrocytes (500 μg protein) precipitated with rabbit polyclonal anti-PPARγ antibody and protein A-Sepharose, washed six times (buffer pH 7.4, 10 mM MgCl2, 1% NP-40), blotted for PGC-1α and HDAC3; cells were control, OGD/R, OGD/R + α-asaronol, or OGD/R + α-asaronol + GW9662
[2] = biological target: peroxisome proliferator-activated receptor γ (PPARγ) (rat (endogenous in primary astrocytes)) (UniProt O88275); experiment: condition: only OGD and α-asaronol treatment of the astrocytes; co-IP; same anti-PPARγ co-IP; astrocytes after OGD and α-asaronol treatment

| Binder | binding [1] | binding [2] |
| --- | --- | --- |
| peroxisome proliferator-activated receptor-γ coactivator-1 alpha (PGC-1α) (protein, UniProt Q9QYK2 1-796) MAWDMCSQDSVWSDIECAALVGEDQPLCPDLPELDLSELDVNDLDTDSFLGGLKWCSDQSEIISNQYNNEPANIFEKIDEENEANLLAVLTETLDSLPVDEDGLPSFDALTDGDVTTDNEASPSSMPDGTPPPQEAEEPSLLKKLLLAPANTQLSYNECSGLSTQNHANHTHRIRTNPAIVKTENSWSNKAKSICQQQKPQRRPCSELLKYLTTNDDPPHTKPTENRNSSRDKCASKKKSHTQPQSQHAQAKPTTLSLPLTPESPNDPKGSPFENKTIERTLSVELSGTAGLTPPTTPPHKANQDNPFKASPKLKPSCKTVVPPPTKRARYSECSGTQGSHSTKKGPEQSELYAQLSKSSVLSRGHEERKTKRPSLRLFGDHDYCQSVNSKTDILINISQELQDSRQLDFKDASCDWQGHICSSTDSSQCYLRETLEASKQVSPCSTRKQLQDQEIRAELNKHFGHPSQAVFDDKVDKTSELRDGNFSNEQFSKLPVFINSGLAMDGLFDDSEDENDKLSYPWDGTQSYSLFDVSPSCSSFNSPCRDSVSPPKSLFSQRPQRMRSRSRSFSRHRSCSRSPYSRSRSRSPGSRSSSRSCYYYESSHYRHRTHRNSPLYVRSRSRSPYSRRPRYDSYEANEHERLKRDEYRREYEKRESERAKQRERQKQKAIEERRVIYVGKIRPDTTRTELRDRFEVFGEIEECTVNLRDDGDSYGFITYRYTCDAFAALENGYTLRRSNETDFELYFCGRKQFFKSNYADLDSNSDDFDPASTKSKYDSLDFDSLLKEAQRSLRR | binds | – |
| histone deacetylase 3 (HDAC3) (protein, UniProt Q6P6W3 1-428) MAKTVAYFYDPDVGNFHYGAGHPMKPHRLALTHSLVLHYGLYKKMIVFKPYQASQHDMCRFHSEDYIDFLQRVSPTNMQGFTKSLNAFNVGDDCPVFPGLFEFCSRYTGASLQGATQLNNKICDIAINWAGGLHHAKKFEASGFCYVNDIVIGILELLKYHPRVLYIDIDIHHGDGVQEAFYLTDRVMTVSFHKYGNYFFPGTGDMYEVGAESGRYYCLNVPLRDGIDDQSYKHLFQPVISQVVDFYQPTCIVLQCGADSLGCDRLGCFNLSIRGHGECVEYVKSFNIPLLVLGGGGYTVRNVARCWTYETSLLVEEAISEELPYSEYFEYFAPDFTLHPDVSTRIENQNSRQYLDQIRQTIFENLKMLNHAPSVQIHDVPADLLTYDRTDEADAEERGPEENYSRPEAPNEFYDGDHDNDKESDVEI | binds | no binding |
